The source of these data is article PMC12218279.

Sequences of proteins named here, by UniProt entry; tags and fusion partners are left off.
UniProt C6KT37: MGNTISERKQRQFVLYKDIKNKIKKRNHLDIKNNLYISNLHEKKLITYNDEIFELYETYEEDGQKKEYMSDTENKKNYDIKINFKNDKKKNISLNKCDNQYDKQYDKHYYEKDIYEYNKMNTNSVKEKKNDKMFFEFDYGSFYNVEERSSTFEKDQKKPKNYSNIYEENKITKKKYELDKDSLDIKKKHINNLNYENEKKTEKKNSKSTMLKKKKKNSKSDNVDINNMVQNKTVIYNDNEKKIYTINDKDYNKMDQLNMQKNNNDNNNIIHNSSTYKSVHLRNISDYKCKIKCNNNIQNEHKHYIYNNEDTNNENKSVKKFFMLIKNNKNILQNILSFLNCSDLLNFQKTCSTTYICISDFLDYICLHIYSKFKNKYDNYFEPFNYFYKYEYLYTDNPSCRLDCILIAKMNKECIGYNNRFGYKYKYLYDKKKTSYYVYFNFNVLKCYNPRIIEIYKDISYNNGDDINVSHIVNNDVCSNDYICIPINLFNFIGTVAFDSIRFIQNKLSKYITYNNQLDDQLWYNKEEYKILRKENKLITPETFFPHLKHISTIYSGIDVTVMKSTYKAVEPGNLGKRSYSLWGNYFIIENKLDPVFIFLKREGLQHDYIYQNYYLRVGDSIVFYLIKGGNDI

Test [1] concerns the target PfFBOX01-HA (P. falciparum) (UniProt C6KT37). Kind of test: co-IP; immunoprecipitation of PfFBOX01-HA from schizonts that also carry a C-terminally FLAG-tagged candidate substrate; immunoblot (Fig. S5 and S13). Background: Immunoblotting shows a protein as a band on a membrane.
Test [2] concerns the target T1, PfMCM4-Flag (P. falciparum) (UniProt Q8IEE5).
T1 sequence: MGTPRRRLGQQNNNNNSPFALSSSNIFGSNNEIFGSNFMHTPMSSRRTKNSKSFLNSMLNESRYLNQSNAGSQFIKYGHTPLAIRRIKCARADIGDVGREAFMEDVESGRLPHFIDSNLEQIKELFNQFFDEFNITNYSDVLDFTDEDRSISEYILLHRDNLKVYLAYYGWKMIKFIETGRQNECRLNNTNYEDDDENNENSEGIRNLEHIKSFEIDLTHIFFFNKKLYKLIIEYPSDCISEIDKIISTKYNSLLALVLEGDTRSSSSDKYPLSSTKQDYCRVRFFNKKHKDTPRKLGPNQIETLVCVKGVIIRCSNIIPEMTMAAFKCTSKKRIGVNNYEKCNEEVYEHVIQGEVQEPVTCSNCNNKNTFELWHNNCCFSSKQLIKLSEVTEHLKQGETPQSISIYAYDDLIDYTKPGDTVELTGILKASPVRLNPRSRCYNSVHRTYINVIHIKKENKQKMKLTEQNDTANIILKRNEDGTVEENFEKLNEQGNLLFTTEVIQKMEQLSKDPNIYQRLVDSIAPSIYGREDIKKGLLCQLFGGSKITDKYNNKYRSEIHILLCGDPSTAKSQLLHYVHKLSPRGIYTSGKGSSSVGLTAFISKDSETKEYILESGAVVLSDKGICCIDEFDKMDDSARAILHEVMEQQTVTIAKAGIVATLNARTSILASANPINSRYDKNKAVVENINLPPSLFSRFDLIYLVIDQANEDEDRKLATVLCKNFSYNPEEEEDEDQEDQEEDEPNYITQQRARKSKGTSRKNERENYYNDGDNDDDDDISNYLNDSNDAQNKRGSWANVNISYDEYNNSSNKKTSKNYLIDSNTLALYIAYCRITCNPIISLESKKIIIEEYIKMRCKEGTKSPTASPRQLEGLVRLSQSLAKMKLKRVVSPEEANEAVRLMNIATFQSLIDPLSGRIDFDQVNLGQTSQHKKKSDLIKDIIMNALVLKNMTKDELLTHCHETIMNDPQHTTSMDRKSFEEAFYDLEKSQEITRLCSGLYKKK
Kind of test: co-IP; anti-Flag immunoprecipitation of MCM4-Flag from DiCre-PfSKP1-HA + MCM4-Flag or DiCre-PfRBX1-HA + MCM4-Flag schizonts pre-treated with DMSO or 10 nM rapamycin; immunoblot with anti-Flag, anti-ubiquitin and anti-HA.

No constants are given. Whether binding was seen depends on the method and setting. In cells and extracts the contact can be indirect. For part of these data: Sequences can lack the tags named with a protein.

Consider “PF3D7_1423300 (protein phosphatase 7) tagged at the C-terminus with FLAG epitopes (from UniProt Q8ILL9 1-959) (enzyme)”, for which, in test [1], the binding entry was “no binding”.

B1: PfRBX1-HA (protein, UniProt O77367 1-107)
chain: MADNITNDKRDIFKIHKWSAVAAWSWDISVDNCAICRNHIMDLCIECQAKTTDHENDKDKKIDKEGCTVAWGVCNHAFHLHCISRWIKARQVCPLDNTTWEFQKATD
On to B1, for which, in test [2], the binding entry is recorded as “no binding”.

B2: PfSKP1-HA (protein, UniProt Q8ID38 1-162)
chain: MKNDKIKLVSFEGDEFIVDKNTASMSTVIMNILEVMTAEEDTIPLPNIKTPILKKIIEYMEYHINNPADEIPKPLITSNLQDVVSSWDFDFVNTDKETLYELIEASNYLDIKPLLDLTCGKIASMMKDKTTEEIRAEFDIVNDFTREEEKQIREENRWCGDI
Regarding B2, in test [2], the binding result is “no binding”.
